Laboratory results as given in patent US20150218261A1.

Assays:
[1] = target: human platelet factor 4 (PF-4) in HPF4-spiked human plasma (human); assay: sandwich-ELISA: antibody coated on the plate, dilution series of HPF4-spiked human plasma, bound PF-4 detected (OD450nm)
[2] = target: human platelet factor 4 (PF-4) in HPF4-spiked human plasma (human); assay: aligned sandwich-ELISA: dilution series of antibody captured by immobilized anti-IgG, then 1:10 HPF4-spiked human plasma, bound PF-4 detected (OD450nm)

binding [2]: no binding (tested: 10000 ng/mL)
B1: humanized monoclonal anti-Aβ antibody 4D10hum#2 (antibody, human IgG1, kappa, V domains shown)
VH: EVQLQESGPGLVKPSETLSLTCTVSGFSLSSYGVHWVRQPPGKGLEWLGVIWRGGRIDYNAAFMSRLTISKDTSKSQVSLKLSSVTAADTAVYYCARNSDVWGQGTTVTVSS
VL: DVVMTQTPLSLPVTPGQPASISCKSSQSLLDIDGKTYLNWLLQKPGQSPQRLIYLVSKLDSGVPDRFSGSGSGTDFTLKISRVEAEDVGVYYCWQGTHFPYTFGQGTKLEIKR
binding [1]: no binding (tested: plasma dilution 1:3.16)

Results are given in words; binding and its absence hold for the method and conditions named.
